{"source": "PubChem BioAssay AID652272 (Drosophila RNAi Screening Center, 2013)", "assay": "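Genome-wide knock-down search for components of Hedgehog signalling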 (primary screen)", "system": "Drosophila clone 8 (Cl8) cells", "reagent": "long dsRNA against Drosophila genes", "measured": "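Firefly light from a Hedgehog-responsive ptc promoter reporter and Renilla reference light, both read on a plate reader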", "direction": "firefly Hh reporter signal: higher = more ptc reporter light; Renilla reference signal: higher = more Renilla control light", "call rule": "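Called a hit if the two-replicate mean z-score lies below -2 or above +3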", "meaning of the calls": "active = hit: reporter lowered or raised; inactive = not a hit", "note": "The screen tested about 21,000 reagents; shown is a random part of those with a known target gene and a result. In the full data, 503 (2.4%) were called active. 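Raw plate light values, not normalised; calls rest on replicate z-scores that were not deposited; hits include reporter decreases as well as increases.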 Reagents against one gene are numbered here. Not stated in the record: the amount of reagent, the time to read-out."}
{"predicted target": "Traf4 (TNF-receptor-associated factor 4)", "dsRNA no.": 1, "firefly Hh reporter signal, replicate 1": 66407, "firefly Hh reporter signal, replicate 2": 51277, "Renilla reference signal, replicate 1": 933, "Renilla reference signal, replicate 2": 4529, "call": "inactive"}
{"predicted target": "Traf4 (TNF-receptor-associated factor 4)", "dsRNA no.": 2, "firefly Hh reporter signal, replicate 1": 69399, "firefly Hh reporter signal, replicate 2": 67515, "Renilla reference signal, replicate 1": 3536, "Renilla reference signal, replicate 2": 2810, "call": "inactive"}
{"predicted target": "Ir48a (Ionotropic receptor 48a)", "dsRNA no.": 1, "firefly Hh reporter signal, replicate 1": 1.62e5, "firefly Hh reporter signal, replicate 2": 2.40e5, "Renilla reference signal, replicate 1": 3961, "Renilla reference signal, replicate 2": 9004, "call": "inactive"}
{"predicted target": "Mlp84B (Muscle LIM protein at 84B)", "dsRNA no.": 1, "firefly Hh reporter signal, replicate 1": 59661, "firefly Hh reporter signal, replicate 2": 85363, "Renilla reference signal, replicate 1": 2752, "Renilla reference signal, replicate 2": 2642, "call": "inactive"}
{"predicted target": "Cpr11B (Cuticular protein 11B)", "dsRNA no.": 1, "firefly Hh reporter signal, replicate 1": 1.10e5, "firefly Hh reporter signal, replicate 2": 66017, "Renilla reference signal, replicate 1": 2546, "Renilla reference signal, replicate 2": 1712, "call": "inactive"}
{"predicted target": "Acp63F (Accessory gland protein 63F)", "dsRNA no.": 1, "firefly Hh reporter signal, replicate 1": 83061, "firefly Hh reporter signal, replicate 2": 51296, "Renilla reference signal, replicate 1": 2497, "Renilla reference signal, replicate 2": 3597, "call": "inactive"}
{"predicted target": "Lis-1 (Lissencephaly-1)", "dsRNA no.": 1, "firefly Hh reporter signal, replicate 1": 1.14e5, "firefly Hh reporter signal, replicate 2": 46791, "Renilla reference signal, replicate 1": 2938, "Renilla reference signal, replicate 2": 3320, "call": "inactive"}
{"predicted target": "lncRNA:CR43409 (long non-coding RNA:CR43409)", "dsRNA no.": 1, "firefly Hh reporter signal, replicate 1": 6.71e5, "firefly Hh reporter signal, replicate 2": 2.69e5, "Renilla reference signal, replicate 1": 32033, "Renilla reference signal, replicate 2": 10597, "call": "inactive"}
{"predicted target": "CG8668", "dsRNA no.": 1, "firefly Hh reporter signal, replicate 1": 73760, "firefly Hh reporter signal, replicate 2": 64534, "Renilla reference signal, replicate 1": 3365, "Renilla reference signal, replicate 2": 2810, "call": "inactive"}
{"predicted target": "PH4alphaSG2 (prolyl-4-hydroxylase-alpha SG2)", "dsRNA no.": 1, "firefly Hh reporter signal, replicate 1": 66970, "firefly Hh reporter signal, replicate 2": 70113, "Renilla reference signal, replicate 1": 1026, "Renilla reference signal, replicate 2": 1896, "call": "inactive"}
{"predicted target": "Prp6 (pre-mRNA processing factor 6)", "dsRNA no.": 1, "firefly Hh reporter signal, replicate 1": 1.40e5, "firefly Hh reporter signal, replicate 2": 8.32e5, "firefly Hh reporter signal, replicate 3": 1.27e5, "Renilla reference signal, replicate 1": 4992, "Renilla reference signal, replicate 2": 46851, "call": "inactive"}
{"predicted target": "COX6B (Cytochrome c oxidase subunit 6B)", "dsRNA no.": 1, "firefly Hh reporter signal, replicate 1": 1.43e5, "firefly Hh reporter signal, replicate 2": 1.26e5, "Renilla reference signal, replicate 1": 3352, "Renilla reference signal, replicate 2": 3040, "call": "inactive"}
